# Measured values from paper doi:10.1101/2021.06.22.449524.
# By UniProt entry, the sequences of proteins in these tests, tags left out.
# UniProt P70288: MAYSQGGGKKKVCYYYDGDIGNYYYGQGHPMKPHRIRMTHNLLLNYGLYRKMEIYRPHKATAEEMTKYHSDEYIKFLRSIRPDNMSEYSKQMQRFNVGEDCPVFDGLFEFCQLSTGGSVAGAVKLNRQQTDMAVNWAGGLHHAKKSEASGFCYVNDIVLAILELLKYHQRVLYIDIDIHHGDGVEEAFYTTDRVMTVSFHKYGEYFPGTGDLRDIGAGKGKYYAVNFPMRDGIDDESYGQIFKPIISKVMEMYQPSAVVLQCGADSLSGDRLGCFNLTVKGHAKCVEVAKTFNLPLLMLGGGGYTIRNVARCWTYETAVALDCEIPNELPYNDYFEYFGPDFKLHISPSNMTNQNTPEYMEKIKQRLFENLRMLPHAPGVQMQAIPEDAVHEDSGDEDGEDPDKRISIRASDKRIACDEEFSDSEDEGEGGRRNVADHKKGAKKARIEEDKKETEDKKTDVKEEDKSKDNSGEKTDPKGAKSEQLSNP
# UniProt O09106: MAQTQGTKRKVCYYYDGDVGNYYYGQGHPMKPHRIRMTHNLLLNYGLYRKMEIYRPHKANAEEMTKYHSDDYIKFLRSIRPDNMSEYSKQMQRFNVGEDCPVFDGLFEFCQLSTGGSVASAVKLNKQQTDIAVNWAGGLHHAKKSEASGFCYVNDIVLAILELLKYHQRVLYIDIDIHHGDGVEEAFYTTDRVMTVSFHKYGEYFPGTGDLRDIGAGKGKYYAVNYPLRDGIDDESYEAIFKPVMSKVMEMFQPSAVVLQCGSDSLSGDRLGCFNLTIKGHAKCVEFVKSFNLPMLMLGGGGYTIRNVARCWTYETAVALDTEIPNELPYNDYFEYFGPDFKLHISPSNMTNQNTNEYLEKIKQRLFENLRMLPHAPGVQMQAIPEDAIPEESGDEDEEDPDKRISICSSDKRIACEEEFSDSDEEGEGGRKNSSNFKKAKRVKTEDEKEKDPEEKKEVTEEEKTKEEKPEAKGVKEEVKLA
# These are yes or no findings as the source states them, for the method shown. Binding seen in cells or lysates may run through a third protein. Here binding means that the protein was enriched with, or labelled near, the bait; the list need not be complete. For some assays here: Sequences can lack the tags named with a protein.
# T1: ZFP541-EGFP (zinc finger protein 541 with C-terminal EGFP, knock-in) (mouse (endogenous locus, knock-in, in testis)) (UniProt Q0GGX2)
# T1 sequence: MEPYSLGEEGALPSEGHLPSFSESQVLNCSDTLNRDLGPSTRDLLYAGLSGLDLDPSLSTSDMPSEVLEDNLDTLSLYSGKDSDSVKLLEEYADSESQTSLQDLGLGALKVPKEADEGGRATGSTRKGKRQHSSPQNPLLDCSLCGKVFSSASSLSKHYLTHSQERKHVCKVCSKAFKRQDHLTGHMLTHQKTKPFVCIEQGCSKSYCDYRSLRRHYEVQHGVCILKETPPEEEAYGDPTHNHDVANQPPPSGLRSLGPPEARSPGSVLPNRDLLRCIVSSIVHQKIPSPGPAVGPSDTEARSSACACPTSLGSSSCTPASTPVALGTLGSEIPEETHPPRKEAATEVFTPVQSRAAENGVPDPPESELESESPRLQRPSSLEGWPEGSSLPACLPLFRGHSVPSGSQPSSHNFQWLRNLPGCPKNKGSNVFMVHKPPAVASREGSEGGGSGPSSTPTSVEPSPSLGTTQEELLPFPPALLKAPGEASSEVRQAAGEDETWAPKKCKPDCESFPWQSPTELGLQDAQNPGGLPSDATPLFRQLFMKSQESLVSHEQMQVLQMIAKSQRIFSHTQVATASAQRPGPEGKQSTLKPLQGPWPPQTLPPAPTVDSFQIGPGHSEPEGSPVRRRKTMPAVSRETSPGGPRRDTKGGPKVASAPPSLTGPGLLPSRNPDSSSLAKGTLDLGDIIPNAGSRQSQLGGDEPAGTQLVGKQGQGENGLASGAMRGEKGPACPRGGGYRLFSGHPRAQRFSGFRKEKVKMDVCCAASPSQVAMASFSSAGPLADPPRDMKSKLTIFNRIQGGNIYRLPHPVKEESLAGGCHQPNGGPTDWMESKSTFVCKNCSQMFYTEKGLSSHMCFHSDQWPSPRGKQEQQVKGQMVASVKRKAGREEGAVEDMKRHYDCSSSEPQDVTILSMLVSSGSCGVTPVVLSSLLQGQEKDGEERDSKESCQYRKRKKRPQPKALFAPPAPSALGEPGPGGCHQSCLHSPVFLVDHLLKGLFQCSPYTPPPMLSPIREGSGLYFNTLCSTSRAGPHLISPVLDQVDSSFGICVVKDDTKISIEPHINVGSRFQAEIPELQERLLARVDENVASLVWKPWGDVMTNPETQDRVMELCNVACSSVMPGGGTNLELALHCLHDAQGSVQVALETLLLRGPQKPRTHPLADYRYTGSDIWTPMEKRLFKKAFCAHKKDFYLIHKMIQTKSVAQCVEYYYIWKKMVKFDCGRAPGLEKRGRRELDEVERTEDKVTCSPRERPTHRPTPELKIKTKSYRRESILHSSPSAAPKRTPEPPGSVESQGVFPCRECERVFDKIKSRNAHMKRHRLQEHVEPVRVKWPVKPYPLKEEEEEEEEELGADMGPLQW
# T2: potassium channel tetramerization domain containing 19 (KCTD19) (mouse (endogenous in testis)) (UniProt Q562E2)
# T2 sequence: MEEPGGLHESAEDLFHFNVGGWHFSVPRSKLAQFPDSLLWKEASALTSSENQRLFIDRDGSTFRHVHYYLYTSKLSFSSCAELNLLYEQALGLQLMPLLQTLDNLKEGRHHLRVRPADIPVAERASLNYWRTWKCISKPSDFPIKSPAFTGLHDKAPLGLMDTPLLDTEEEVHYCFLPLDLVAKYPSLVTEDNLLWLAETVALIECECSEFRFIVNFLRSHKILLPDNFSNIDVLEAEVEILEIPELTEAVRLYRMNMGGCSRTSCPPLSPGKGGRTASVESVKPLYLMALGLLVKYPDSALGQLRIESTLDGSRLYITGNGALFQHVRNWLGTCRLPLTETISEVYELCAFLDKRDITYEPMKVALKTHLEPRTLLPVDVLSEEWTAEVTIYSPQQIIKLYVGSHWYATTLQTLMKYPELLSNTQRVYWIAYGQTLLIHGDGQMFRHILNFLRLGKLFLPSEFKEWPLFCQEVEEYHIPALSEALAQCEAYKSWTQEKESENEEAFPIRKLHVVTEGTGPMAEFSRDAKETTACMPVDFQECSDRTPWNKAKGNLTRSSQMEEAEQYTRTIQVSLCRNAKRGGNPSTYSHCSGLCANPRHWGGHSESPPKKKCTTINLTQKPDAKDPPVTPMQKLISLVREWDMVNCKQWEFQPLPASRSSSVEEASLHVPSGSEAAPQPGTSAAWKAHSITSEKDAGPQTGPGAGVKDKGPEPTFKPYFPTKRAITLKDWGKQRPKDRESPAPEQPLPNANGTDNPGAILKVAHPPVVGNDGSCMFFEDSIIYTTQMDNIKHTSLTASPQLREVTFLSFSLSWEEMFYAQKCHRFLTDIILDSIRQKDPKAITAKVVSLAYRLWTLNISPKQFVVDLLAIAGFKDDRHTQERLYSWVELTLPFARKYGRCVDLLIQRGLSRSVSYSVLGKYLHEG
# What was measured:
# [1] = target: T1, ZFP541-EGFP (zinc finger protein 541 with C-terminal EGFP, knock-in) (mouse (endogenous locus, knock-in, in testis)); assay: affinity purification with mass spectrometry
# [2] = target: T2, potassium channel tetramerization domain containing 19 (KCTD19) (mouse (endogenous in testis)); assay: affinity purification with mass spectrometry
Molecule,binding [1],binding [2]
histone deacetylase 2 (HDAC2) (from UniProt P70288 1-488),binds,
histone deacetylase 1 (HDAC1) (from UniProt O09106 1-482),binds,
"potassium channel tetramerization domain containing 19 (KCTD19) (protein, UniProt Q562E2 1-927) MEEPGGLHESAEDLFHFNVGGWHFSVPRSKLAQFPDSLLWKEASALTSSENQRLFIDRDGSTFRHVHYYLYTSKLSFSSCAELNLLYEQALGLQLMPLLQTLDNLKEGRHHLRVRPADIPVAERASLNYWRTWKCISKPSDFPIKSPAFTGLHDKAPLGLMDTPLLDTEEEVHYCFLPLDLVAKYPSLVTEDNLLWLAETVALIECECSEFRFIVNFLRSHKILLPDNFSNIDVLEAEVEILEIPELTEAVRLYRMNMGGCSRTSCPPLSPGKGGRTASVESVKPLYLMALGLLVKYPDSALGQLRIESTLDGSRLYITGNGALFQHVRNWLGTCRLPLTETISEVYELCAFLDKRDITYEPMKVALKTHLEPRTLLPVDVLSEEWTAEVTIYSPQQIIKLYVGSHWYATTLQTLMKYPELLSNTQRVYWIAYGQTLLIHGDGQMFRHILNFLRLGKLFLPSEFKEWPLFCQEVEEYHIPALSEALAQCEAYKSWTQEKESENEEAFPIRKLHVVTEGTGPMAEFSRDAKETTACMPVDFQECSDRTPWNKAKGNLTRSSQMEEAEQYTRTIQVSLCRNAKRGGNPSTYSHCSGLCANPRHWGGHSESPPKKKCTTINLTQKPDAKDPPVTPMQKLISLVREWDMVNCKQWEFQPLPASRSSSVEEASLHVPSGSEAAPQPGTSAAWKAHSITSEKDAGPQTGPGAGVKDKGPEPTFKPYFPTKRAITLKDWGKQRPKDRESPAPEQPLPNANGTDNPGAILKVAHPPVVGNDGSCMFFEDSIIYTTQMDNIKHTSLTASPQLREVTFLSFSLSWEEMFYAQKCHRFLTDIILDSIRQKDPKAITAKVVSLAYRLWTLNISPKQFVVDLLAIAGFKDDRHTQERLYSWVELTLPFARKYGRCVDLLIQRGLSRSVSYSVLGKYLHEG",binds,
"deoxynucleotidyltransferase terminal-interacting protein 1 (DNTTIP1) (protein, UniProt Q99LB0 1-328) MGATGDTEQPRGPGGAERGGLELGDAGAAGQPVLTNPWNIMIKHRQVQRRGRRSQMTTSFTDPAISMDLLRAVLQPSINEEIQGVFNKYMKFFQKAALNVRDNVGEEVDAEQLIQEACRSCLEQAKLLFSDGEKVIPRLAHELPGIKRGRQAEEESHRGSPIPKKRKGRPPGHVLSNDRAAAGMVWKQKSCEPIRREGPKWDPARLNESTTFVLGSRANKALGMGGTRGRIYIKHPHLFKYAADPQDKHWLAEQHHMRATGGKMAYLLIEEDIRDLAASDDYRGCLDLKLEELKSFVLPSWMVEKMRKYMETLRTENEHRAAEAPPQT",binds,
"zinc finger protein 541 (ZFP541) (protein, UniProt Q0GGX2 1-1363) MEPYSLGEEGALPSEGHLPSFSESQVLNCSDTLNRDLGPSTRDLLYAGLSGLDLDPSLSTSDMPSEVLEDNLDTLSLYSGKDSDSVKLLEEYADSESQTSLQDLGLGALKVPKEADEGGRATGSTRKGKRQHSSPQNPLLDCSLCGKVFSSASSLSKHYLTHSQERKHVCKVCSKAFKRQDHLTGHMLTHQKTKPFVCIEQGCSKSYCDYRSLRRHYEVQHGVCILKETPPEEEAYGDPTHNHDVANQPPPSGLRSLGPPEARSPGSVLPNRDLLRCIVSSIVHQKIPSPGPAVGPSDTEARSSACACPTSLGSSSCTPASTPVALGTLGSEIPEETHPPRKEAATEVFTPVQSRAAENGVPDPPESELESESPRLQRPSSLEGWPEGSSLPACLPLFRGHSVPSGSQPSSHNFQWLRNLPGCPKNKGSNVFMVHKPPAVASREGSEGGGSGPSSTPTSVEPSPSLGTTQEELLPFPPALLKAPGEASSEVRQAAGEDETWAPKKCKPDCESFPWQSPTELGLQDAQNPGGLPSDATPLFRQLFMKSQESLVSHEQMQVLQMIAKSQRIFSHTQVATASAQRPGPEGKQSTLKPLQGPWPPQTLPPAPTVDSFQIGPGHSEPEGSPVRRRKTMPAVSRETSPGGPRRDTKGGPKVASAPPSLTGPGLLPSRNPDSSSLAKGTLDLGDIIPNAGSRQSQLGGDEPAGTQLVGKQGQGENGLASGAMRGEKGPACPRGGGYRLFSGHPRAQRFSGFRKEKVKMDVCCAASPSQVAMASFSSAGPLADPPRDMKSKLTIFNRIQGGNIYRLPHPVKEESLAGGCHQPNGGPTDWMESKSTFVCKNCSQMFYTEKGLSSHMCFHSDQWPSPRGKQEQQVKGQMVASVKRKAGREEGAVEDMKRHYDCSSSEPQDVTILSMLVSSGSCGVTPVVLSSLLQGQEKDGEERDSKESCQYRKRKKRPQPKALFAPPAPSALGEPGPGGCHQSCLHSPVFLVDHLLKGLFQCSPYTPPPMLSPIREGSGLYFNTLCSTSRAGPHLISPVLDQVDSSFGICVVKDDTKISIEPHINVGSRFQAEIPELQERLLARVDENVASLVWKPWGDVMTNPETQDRVMELCNVACSSVMPGGGTNLELALHCLHDAQGSVQVALETLLLRGPQKPRTHPLADYRYTGSDIWTPMEKRLFKKAFCAHKKDFYLIHKMIQTKSVAQCVEYYYIWKKMVKFDCGRAPGLEKRGRRELDEVERTEDKVTCSPRERPTHRPTPELKIKTKSYRRESILHSSPSAAPKRTPEPPGSVESQGVFPCRECERVFDKIKSRNAHMKRHRLQEHVEPVRVKWPVKPYPLKEEEEEEEEELGADMGPLQW",,binds
